This is a selection; strong and weak results do not stand in their true shares. Small differences around the control level are noise.

Chains of the proteins cited; added tags and fusions are not shown. Lines headed by an entry give the natural chain unless they say otherwise; changes in a name come on top.
UniProt P16528: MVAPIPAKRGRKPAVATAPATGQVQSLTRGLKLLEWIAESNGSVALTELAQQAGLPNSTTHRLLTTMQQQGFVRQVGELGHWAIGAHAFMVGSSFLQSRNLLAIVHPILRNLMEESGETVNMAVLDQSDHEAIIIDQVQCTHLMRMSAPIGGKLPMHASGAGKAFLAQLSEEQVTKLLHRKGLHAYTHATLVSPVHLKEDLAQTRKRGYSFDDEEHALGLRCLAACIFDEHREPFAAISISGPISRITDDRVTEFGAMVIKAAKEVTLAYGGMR
UniProt P21367: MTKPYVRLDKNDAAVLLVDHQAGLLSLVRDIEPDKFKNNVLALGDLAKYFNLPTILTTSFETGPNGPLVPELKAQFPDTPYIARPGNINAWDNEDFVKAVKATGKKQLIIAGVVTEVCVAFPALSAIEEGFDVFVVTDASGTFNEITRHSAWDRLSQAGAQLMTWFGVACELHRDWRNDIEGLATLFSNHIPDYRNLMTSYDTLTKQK
UniProt P28629: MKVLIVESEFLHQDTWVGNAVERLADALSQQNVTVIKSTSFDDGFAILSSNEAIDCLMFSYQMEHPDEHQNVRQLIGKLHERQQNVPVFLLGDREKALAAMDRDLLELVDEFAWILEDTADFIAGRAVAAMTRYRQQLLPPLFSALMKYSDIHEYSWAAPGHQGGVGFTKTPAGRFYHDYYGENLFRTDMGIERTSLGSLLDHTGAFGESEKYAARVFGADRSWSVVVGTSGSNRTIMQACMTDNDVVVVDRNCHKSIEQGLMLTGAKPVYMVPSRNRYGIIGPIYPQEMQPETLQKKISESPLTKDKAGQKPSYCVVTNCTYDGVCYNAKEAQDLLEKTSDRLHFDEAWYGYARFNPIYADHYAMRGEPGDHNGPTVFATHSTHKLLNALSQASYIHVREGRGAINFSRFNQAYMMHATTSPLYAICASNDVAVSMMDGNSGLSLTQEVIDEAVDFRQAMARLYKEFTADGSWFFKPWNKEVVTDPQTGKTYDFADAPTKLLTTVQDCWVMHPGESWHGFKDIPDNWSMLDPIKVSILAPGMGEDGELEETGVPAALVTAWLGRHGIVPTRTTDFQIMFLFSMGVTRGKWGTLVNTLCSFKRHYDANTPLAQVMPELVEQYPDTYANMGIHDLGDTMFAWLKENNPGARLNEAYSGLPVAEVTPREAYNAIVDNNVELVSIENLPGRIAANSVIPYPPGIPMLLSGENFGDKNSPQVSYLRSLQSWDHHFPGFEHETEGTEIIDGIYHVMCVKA
UniProt P22731: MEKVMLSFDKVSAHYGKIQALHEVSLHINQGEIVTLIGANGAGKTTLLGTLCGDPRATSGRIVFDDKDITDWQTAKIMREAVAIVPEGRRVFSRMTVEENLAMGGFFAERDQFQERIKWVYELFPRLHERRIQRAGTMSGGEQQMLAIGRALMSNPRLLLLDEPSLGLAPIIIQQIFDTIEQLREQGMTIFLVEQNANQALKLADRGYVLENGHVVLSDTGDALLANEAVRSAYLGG
UniProt P30177: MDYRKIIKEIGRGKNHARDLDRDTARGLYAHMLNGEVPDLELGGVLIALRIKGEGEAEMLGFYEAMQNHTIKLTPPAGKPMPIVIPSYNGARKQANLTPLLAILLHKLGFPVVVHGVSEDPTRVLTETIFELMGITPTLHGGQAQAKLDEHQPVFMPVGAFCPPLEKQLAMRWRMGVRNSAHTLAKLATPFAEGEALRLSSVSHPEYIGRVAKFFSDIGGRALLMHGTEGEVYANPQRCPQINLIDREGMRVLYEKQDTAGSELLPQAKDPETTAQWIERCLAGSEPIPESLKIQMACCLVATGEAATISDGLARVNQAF
UniProt P30843: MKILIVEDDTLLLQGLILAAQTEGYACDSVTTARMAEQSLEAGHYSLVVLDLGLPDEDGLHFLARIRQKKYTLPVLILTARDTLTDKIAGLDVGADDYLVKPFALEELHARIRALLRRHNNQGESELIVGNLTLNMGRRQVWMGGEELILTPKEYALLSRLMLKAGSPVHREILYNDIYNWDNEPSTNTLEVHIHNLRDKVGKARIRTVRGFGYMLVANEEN
UniProt P25534: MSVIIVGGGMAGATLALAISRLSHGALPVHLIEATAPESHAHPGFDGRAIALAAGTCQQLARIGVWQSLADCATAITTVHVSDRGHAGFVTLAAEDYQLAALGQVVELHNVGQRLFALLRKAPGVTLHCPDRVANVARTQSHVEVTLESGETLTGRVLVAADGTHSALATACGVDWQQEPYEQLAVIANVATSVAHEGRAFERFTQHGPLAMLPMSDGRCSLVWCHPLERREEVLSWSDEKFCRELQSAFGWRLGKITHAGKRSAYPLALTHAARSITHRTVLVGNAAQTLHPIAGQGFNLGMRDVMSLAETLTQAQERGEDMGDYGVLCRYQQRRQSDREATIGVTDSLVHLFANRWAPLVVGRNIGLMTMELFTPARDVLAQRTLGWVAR
UniProt P27242: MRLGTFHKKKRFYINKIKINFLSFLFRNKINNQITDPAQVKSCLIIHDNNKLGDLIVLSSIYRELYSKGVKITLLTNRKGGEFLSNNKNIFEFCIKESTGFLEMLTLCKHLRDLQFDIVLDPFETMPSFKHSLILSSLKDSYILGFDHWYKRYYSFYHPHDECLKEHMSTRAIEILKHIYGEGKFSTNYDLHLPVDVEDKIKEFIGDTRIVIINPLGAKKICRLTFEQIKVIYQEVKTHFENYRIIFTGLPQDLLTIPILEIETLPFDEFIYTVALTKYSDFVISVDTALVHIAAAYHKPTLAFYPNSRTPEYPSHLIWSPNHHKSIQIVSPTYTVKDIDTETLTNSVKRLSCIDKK
UniProt P23890: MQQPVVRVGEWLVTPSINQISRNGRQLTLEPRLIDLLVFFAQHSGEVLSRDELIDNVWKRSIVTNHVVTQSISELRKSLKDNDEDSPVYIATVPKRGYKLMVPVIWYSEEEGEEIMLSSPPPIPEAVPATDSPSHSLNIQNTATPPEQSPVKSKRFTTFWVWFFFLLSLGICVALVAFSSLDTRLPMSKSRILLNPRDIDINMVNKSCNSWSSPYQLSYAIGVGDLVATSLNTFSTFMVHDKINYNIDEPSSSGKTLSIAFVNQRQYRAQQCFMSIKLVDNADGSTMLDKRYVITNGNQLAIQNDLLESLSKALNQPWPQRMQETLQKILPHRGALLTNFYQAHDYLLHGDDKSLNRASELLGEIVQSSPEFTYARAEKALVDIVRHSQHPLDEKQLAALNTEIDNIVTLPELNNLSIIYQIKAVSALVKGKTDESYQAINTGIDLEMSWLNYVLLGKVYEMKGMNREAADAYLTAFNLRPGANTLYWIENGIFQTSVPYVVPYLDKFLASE
UniProt P28632: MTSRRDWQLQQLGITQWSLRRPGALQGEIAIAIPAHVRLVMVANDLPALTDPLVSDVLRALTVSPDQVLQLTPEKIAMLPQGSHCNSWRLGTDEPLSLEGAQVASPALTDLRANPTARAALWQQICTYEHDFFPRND
UniProt P26647: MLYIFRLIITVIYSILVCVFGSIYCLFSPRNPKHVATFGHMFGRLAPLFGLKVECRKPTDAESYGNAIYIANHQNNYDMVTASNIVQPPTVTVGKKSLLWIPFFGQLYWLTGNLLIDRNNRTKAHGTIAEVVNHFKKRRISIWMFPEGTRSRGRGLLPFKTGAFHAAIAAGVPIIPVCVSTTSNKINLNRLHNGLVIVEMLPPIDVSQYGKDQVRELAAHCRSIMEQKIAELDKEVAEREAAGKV
UniProt P24183, whole entry: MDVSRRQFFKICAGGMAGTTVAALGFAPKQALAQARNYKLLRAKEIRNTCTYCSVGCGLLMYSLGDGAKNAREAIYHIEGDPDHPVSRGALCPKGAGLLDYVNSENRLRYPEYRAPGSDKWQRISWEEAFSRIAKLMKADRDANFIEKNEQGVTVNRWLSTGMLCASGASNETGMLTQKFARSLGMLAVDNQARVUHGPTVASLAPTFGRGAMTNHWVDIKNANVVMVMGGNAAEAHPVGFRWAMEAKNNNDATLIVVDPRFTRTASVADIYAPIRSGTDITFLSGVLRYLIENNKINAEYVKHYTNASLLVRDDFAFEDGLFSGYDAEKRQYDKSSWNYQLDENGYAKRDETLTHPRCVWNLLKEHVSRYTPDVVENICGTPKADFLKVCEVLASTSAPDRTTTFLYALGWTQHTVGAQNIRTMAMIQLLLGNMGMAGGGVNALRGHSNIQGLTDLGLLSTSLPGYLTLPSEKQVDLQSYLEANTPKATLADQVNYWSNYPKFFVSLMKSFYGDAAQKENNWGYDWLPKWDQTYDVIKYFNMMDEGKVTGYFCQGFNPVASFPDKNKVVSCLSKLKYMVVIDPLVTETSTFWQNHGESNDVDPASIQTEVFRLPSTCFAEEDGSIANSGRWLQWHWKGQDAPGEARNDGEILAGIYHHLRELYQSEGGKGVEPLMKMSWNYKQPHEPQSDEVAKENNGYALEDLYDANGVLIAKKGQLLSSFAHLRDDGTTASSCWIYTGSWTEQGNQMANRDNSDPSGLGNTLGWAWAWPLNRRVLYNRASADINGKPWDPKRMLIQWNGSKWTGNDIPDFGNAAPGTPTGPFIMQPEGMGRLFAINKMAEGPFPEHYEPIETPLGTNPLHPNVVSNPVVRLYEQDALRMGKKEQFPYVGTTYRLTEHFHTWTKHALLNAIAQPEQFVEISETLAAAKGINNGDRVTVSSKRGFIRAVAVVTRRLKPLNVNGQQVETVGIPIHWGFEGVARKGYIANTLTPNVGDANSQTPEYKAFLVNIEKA
UniProt P21189: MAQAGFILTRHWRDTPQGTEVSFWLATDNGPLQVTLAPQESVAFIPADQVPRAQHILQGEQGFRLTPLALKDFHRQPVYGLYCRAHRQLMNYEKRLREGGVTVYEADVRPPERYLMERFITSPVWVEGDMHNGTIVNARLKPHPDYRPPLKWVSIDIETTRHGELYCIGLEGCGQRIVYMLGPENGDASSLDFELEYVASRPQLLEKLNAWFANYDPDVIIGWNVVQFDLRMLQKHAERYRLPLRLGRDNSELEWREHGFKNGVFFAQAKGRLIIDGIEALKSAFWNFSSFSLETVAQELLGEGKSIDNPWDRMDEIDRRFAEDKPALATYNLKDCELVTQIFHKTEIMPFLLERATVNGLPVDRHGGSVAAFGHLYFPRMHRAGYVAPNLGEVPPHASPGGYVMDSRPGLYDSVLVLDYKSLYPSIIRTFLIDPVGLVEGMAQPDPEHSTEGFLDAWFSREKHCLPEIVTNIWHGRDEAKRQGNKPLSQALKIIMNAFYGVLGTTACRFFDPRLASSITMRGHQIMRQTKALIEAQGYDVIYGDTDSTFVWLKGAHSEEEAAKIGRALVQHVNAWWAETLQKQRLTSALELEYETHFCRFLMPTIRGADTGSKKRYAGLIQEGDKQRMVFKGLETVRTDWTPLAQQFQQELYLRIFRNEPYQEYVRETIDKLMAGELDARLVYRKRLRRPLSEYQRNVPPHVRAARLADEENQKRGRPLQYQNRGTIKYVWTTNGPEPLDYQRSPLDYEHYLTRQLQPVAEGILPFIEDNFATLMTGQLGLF
UniProt P30749: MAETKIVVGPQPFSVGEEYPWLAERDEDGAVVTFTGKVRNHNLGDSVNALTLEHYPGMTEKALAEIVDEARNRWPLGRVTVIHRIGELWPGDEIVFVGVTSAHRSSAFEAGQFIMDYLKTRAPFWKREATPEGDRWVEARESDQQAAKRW
UniProt P28911: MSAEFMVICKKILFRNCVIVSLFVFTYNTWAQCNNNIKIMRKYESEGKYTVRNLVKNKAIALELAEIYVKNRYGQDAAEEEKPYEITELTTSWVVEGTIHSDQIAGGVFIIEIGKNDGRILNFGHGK
UniProt P25526: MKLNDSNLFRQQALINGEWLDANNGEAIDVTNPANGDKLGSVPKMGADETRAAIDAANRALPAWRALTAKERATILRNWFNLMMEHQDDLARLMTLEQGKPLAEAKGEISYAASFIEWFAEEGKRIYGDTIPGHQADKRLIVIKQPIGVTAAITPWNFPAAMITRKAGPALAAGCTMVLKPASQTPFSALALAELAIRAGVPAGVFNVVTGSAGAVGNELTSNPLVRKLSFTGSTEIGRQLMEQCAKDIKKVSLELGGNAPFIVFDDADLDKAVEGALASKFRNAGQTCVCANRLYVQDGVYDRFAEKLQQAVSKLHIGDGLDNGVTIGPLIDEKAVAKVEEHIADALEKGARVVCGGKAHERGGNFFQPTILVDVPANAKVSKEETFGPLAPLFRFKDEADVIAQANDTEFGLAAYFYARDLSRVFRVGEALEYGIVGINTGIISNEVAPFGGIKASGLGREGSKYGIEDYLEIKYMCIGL
UniProt P28912: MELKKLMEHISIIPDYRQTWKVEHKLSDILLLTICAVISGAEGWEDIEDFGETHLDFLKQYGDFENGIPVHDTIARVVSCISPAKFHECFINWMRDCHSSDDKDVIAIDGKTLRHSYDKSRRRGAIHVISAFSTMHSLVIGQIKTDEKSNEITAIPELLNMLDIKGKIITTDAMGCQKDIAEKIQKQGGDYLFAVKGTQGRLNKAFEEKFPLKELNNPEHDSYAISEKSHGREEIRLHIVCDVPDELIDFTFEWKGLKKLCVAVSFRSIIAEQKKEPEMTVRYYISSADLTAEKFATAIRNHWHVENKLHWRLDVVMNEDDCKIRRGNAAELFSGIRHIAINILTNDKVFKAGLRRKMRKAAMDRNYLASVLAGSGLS

The results in this text go back to the supplement of paper PMC12819154, “High-throughput peptide-centric local stability assay extends protein–ligand identification to membrane proteins, tissues and bacteria” (Nature Structural & Molecular Biology, 2025).
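Note: lysate desalted by size exclusion to strip endogenous ATP, peptide intensities built from DIA-NN precursor signals, and peptides missing any value discarded before comparison.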

Compound in this assay: Nc1ncnc2c1ncn2[C@@H]1O[C@H](COP(=O)(O)OP(=O)(O)OP(=O)(O)O)[C@@H](O)[C@H]1O [adenosine 5'-triphosphate]
Put plainly: log2 fold change of tryptic peptide abundance, ligand vs vehicle (limited proteolysis) (log2 ratio); higher = more trypsin-susceptible (destabilized). As to conditions: ligand concentration: 5 mM; sample: E. coli desalted lysate; replicate design: treated before aliquoting. The procedure:
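HT-PELSA: desalted E. coli K-12 BW25113 lysate (with 12 mM MgCl2) incubated with 5 mM ATP (pH 7) or water for 30 min at 25 C, then a 4 min trypsin pulse at 22 C. Peptides were quantified by DIA-MS (4 replicates). Value is the peptide log2 fold change (treated/control); negative = stabilized. Scale: negative = ligand-stabilized region.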
As to “UniProt P16528 (peptide sequence: KPAVATAPATGQVQSLTR, peptide start residue: 12)”, the log2 fold change is -0.619. The same measure for “UniProt P19642 (peptide sequence: AVAGAPGK, peptide start residue: 440)”: -0.352; for “UniProt P21367 (peptide sequence: DIEPDKFK, peptide start residue: 30)”: -0.177; for “UniProt P28629 (peptide sequence: EAQDLLEK, peptide start residue: 332)”: 0.645. The same measure for “UniProt P16689 (peptide sequence: KHGMNVLMGAPNIVR, peptide start residue: 262)”: -0.0648; for “UniProt P24241 (peptide sequence: KYQSVQPTVAK, peptide start residue: 470)”: -0.284; for “UniProt P27294 (peptide sequence: NGMSGVQCVER, peptide start residue: 29)”: -0.154. In the case of “UniProt P22731 (peptide sequence: TTLLGTLCGDPR, peptide start residue: 45)”, the log2 fold change was -0.742. To “UniProt P21179 (peptide sequence: SADLLAILK, peptide start residue: 613)” belongs 0.362; to “UniProt P30177 (peptide sequence: DPETTAQWIER, peptide start residue: 270)”, 0.958. The same measure for “UniProt P29744 (peptide sequence: NSLNNVLTVR, peptide start residue: 238)”: -0.0561; for “UniProt P24205 (peptide sequence: RKDLYPIK, peptide start residue: 316)”: -0.341; for “UniProt P30843 (peptide sequence: KYTLPVLILTAR, peptide start residue: 70)”: 0.133. The same measure for “UniProt P25534 (peptide sequence: KAPGVTLHCPDR, peptide start residue: 121)”: 1.3; for “UniProt P28304 (peptide sequence: LIGTVGTAQK, peptide start residue: 168)”: -0.3; for “UniProt P21363 (peptide sequence: ARIEQHLSETK, peptide start residue: 40)”: 1.56.

Turning to “UniProt P23878 (peptide sequence: EIVTAELIER, peptide start residue: 230)”, the log2 fold change turned out to be 0.241. With “UniProt P27242 (peptide sequence: TPEYPSHLIWSPNHHK, peptide start residue: 310)”, the log2 fold change was 0.592. To “UniProt P17411 (peptide sequence: QLFELYKNPELK, peptide start residue: 292)” belongs 0.404; to “UniProt P30128 (peptide sequence: DYISIDSPMAR, peptide start residue: 116)”, 0.169. To “UniProt P25397 (peptide sequence: TIPGLIANMQR, peptide start residue: 112)” belongs -0.379. To “UniProt P20099 (peptide sequence: VSWDEALDLIHQQHKR, peptide start residue: 85)” belongs -0.245; to “UniProt P25665 (peptide sequence: DGSVDIDTLFR, peptide start residue: 88)”, 0.454. As to “UniProt P23842 (peptide sequence: ALEQAPEQEAGK, peptide start residue: 339)”, the log2 fold change is -0.495.

Turning to “UniProt P23890 (peptide sequence: SIVTNHVVTQSISELRK, peptide start residue: 61)”, the log2 fold change is 0.0691. The same measure for “UniProt P28632 (peptide sequence: RPGALQGEIAIAIPAHVR, peptide start residue: 21)”: 0.0821; for “UniProt P23869 (peptide sequence: EGFYNNTIFHR, peptide start residue: 33)”: 0.241. The same measure for “UniProt P26647 (peptide sequence: AHGTIAEVVNHFK, peptide start residue: 124)”: -0.272; for “UniProt P27303 (peptide sequence: STPVAVSTAR, peptide start residue: 361)”: 0.16. To “UniProt P16431 (peptide sequence: GDDIHWSMTGDNQK, peptide start residue: 479)” belongs -0.704. On to “UniProt P21369 (peptide sequence: LIDWCQSR, peptide start residue: 36)”, for which the log2 fold change is -0.673. To “UniProt P24183 (peptide sequence: TASVADIYAPIR, peptide start residue: 265)” belongs -0.839; to “UniProt P21189 (peptide sequence: ETIDKLMAGELDAR, peptide start residue: 668)”, 0.339; to “UniProt P30749 (peptide sequence: DEDGAVVTFTGK, peptide start residue: 26)”, 0.457. To “UniProt P28911 (peptide sequence: ILNFGHGK, peptide start residue: 120)” belongs -0.0776; to “UniProt P28722 (peptide sequence: VEAGQVQQVR, peptide start residue: 77)”, -0.546; to “UniProt P27128 (peptide sequence: NTALLKPNNSNQLR, peptide start residue: 297)”, -0.422. “UniProt P19317 (peptide sequence: TTSLLLFEHVHAESR, peptide start residue: 64)”: the log2 fold change is -0.444. For the target “UniProt P25526 (peptide sequence: LMTLEQGKPLAEAK, peptide start residue: 93)”, the log2 fold change was -0.327. To “UniProt P28912 (peptide sequence: HIAINILTNDKVFK, peptide start residue: 338)” belongs 0.467.
